Publication PMC11101121
No constants are given. Whether binding was seen depends on the method and setting. In cells and extracts the contact can be indirect. These calls come from enrichment with a bait or labelling near it, and not all partners need be listed.

Biological target: TgTBC9^3xHA (Toxoplasma gondii)
Experiment: affinity purification with mass spectrometry; TgTBC9^3xHA precipitated from NP-40 lysate (50 mM Tris pH 8.0, 150 mM NaCl, 1% NP-40) of extracellular parasites with anti-HA sepharose beads, 4 h at room temperature, 4 washes, eluted at high pH; untagged parasites as control; LC-MS/MS

B1: Rab11B (protein, UniProt Q7Z158 1-226)
chain: MAGGSEDYDHLYKVILVGDATVGKTHLLSRYIRGTLPKSPKATIGVEFATRTVPLAVGGTVKAQIWDTAGQERYRSITSAHYRRAVGALLVYDVTRKSTFLNASKWLEELRQNSEPDIVIMMVGNKLDLVEKDPTARDVPYELAAKFAQANGLYFSEASAVTAFNVKHIFEHLLQEIYNHRTQGEEFSGRANGADAYRDAQALGGVRLAANANMYGRNPQNLSCCG
B1 was tested, and the binding was “binds”.
